Measured values taken from article PMC5615076.
No constants are given. Whether binding was seen depends on the method and setting. Binding seen in cells or lysates may run through a third protein. A result given as binding can be weak or reduced; the word gives no strength. Sequences can lack the tags named with a protein.

Molecular target: GIRK2A wild type
Assay: co-IP; HEK293T cells co-transfected with HA-GIRK1 and GIRK2A WT or Y353X (doubled plasmid for Y353X); IP with rabbit anti-GIRK2 N-terminal antibodies; blot with anti-HA; band ratio HA-GIRK1/GIRK2A normalised to GIRK2A WT

- binding: binds
B1: GIRK1 with extracellular HA tag (HA-GIRK1) (protein, UniProt P63251 1-501)
chain: MSALRRKFGDDYQVVTTSSSGSGLQPQGPGQGPQQQLVPKKKRQRFVDKNGRCNVQHGNLGSETSRYLSDLFTTLVDLKWRWNLFIFILTYTVAWLFMASMWWVIAYTRGDLNKAHVGNYTPCVANVYNFPSAFLFFIETEATIGYGYRYITDKCPEGIILFLFQSILGSIVDAFLIGCMFIKMSQPKKRAETLMFSEHAVISMRDGKLTLMFRVGNLRNSHMVSAQIRCKLLKSRQTPEGEFLPLDQLELDVGFSTGADQLFLVSPLTICHVIDAKSPFYDLSQRSMQTEQFEVVVILEGIVETTGMTCQARTSYTEDEVLWGHRFFPVISLEEGFFKVDYSQFHATFEVPTPPYSVKEQEEMLLMSSPLIAPAITNSKERHNSVECLDGLDDISTKLPSKLQKITGREDFPKKLLRMSSTTSEKAYSLGDLPMKLQRISSVPGNSEEKLVSKTTKMLSDPMSQSVADLPPKLQKMAGGPTRMEGNLPAKLRKMNSDRFT
